Data source: PubChem BioAssay AID686938 (Drosophila RNAi Screening Center, 2013)
The screen tested about 23,000 reagents; this is a random part of those that have a named target and a result. Over the whole deposit, 75 (0.33%) were called active. 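Raw plate signals without normalisation; calls rest on plate z-scores that were not deposited; ratio present for only 364 wells.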 Names joined by + are all predicted targets of the reagent. The record does not give: the dose of the treatment.

Screen: 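Fly genes required for calcium entry once internal stores are emptied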 (primary screen)
Cells: Drosophila S2R+ cells
Reagent: long dsRNA against Drosophila genes, about 0.25 µg dsRNA per well, roughly 10,000 cells
Time to read-out: 5 days of knock-down before the calcium assay
Treatment: thapsigargin (SERCA pump blocker) to empty calcium stores; entry signal taken 4 min after adding it
Measurement: 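Per-well fluo-4 fluorescence in two replicates, unnormalised, measured in resting cells and 4 min after store depletion by the SERCA blocker thapsigargin; ratio of the two present in few wells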
Scale: calcium entry signal: higher = stronger calcium signal after store depletion; resting calcium signal: higher = higher resting calcium signal
Units: calcium entry signal in fluorescence units; resting calcium signal in fluorescence units
Call rule: 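Called when the plate z-score of the entry-to-rest ratio, mean of duplicates, falls below −3; wells with low overall dye signal (Fmax z below −2) or more than five off-targets excluded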
Meaning of the calls: active = strongly reduced calcium entry; inactive = no strong reduction

CG4440 [DRSC02747] scored calcium entry signal, replicate 1 = 6.32e7; calcium entry signal, replicate 2 = 3.72e7; resting calcium signal, replicate 1 = 2.60e7; resting calcium signal, replicate 2 = 2.03e7; inactive.
mRpL52 [DRSC06585] gave calcium entry signal, replicate 1 = 5.74e7; calcium entry signal, replicate 2 = 4.75e7; resting calcium signal, replicate 1 = 2.42e7; resting calcium signal, replicate 2 = 2.01e7; inactive.
Obp47b + CG7741 [DRSC06330] gave calcium entry signal, replicate 1 = 2.52e7; calcium entry signal, replicate 2 = 4.00e7; resting calcium signal, replicate 1 = 1.27e7; resting calcium signal, replicate 2 = 1.60e7; inactive.
Knock-down of CG14483 [DRSC06455] came out at: calcium entry signal, replicate 1 = 4.99e7; calcium entry signal, replicate 2 = 6.75e7; resting calcium signal, replicate 1 = 2.08e7; resting calcium signal, replicate 2 = 2.99e7; inactive.
With knock-down of dpa [DRSC07604], the record shows calcium entry signal, replicate 1 = 3.35e7; calcium entry signal, replicate 2 = 3.79e7; resting calcium signal, replicate 1 = 1.62e7; resting calcium signal, replicate 2 = 1.81e7; inactive.
For Sec24AB [DRSC06478], the entry reads calcium entry signal, replicate 1 = 3.01e7; calcium entry signal, replicate 2 = 3.26e7; resting calcium signal, replicate 1 = 1.39e7; resting calcium signal, replicate 2 = 1.65e7; inactive.
CG10734 [DRSC05998] gave calcium entry signal, replicate 1 = 4.50e7; calcium entry signal, replicate 2 = 4.02e7; resting calcium signal, replicate 1 = 2.08e7; resting calcium signal, replicate 2 = 1.93e7; inactive.
Etl1 [DRSC02911] scored calcium entry signal, replicate 1 = 4.46e7; resting calcium signal, replicate 1 = 2.22e7; inactive.
With knock-down of CG30394 [DRSC04074] the results were calcium entry signal, replicate 1 = 3.14e7; calcium entry signal, replicate 2 = 4.18e7; resting calcium signal, replicate 1 = 1.54e7; resting calcium signal, replicate 2 = 1.85e7; inactive.
After knock-down of CG30394 [DRSC04260] the results were calcium entry signal, replicate 1 = 3.20e7; calcium entry signal, replicate 2 = 4.21e7; resting calcium signal, replicate 1 = 1.42e7; resting calcium signal, replicate 2 = 1.90e7; inactive.
Against Gr94a [DRSC13597], the values are calcium entry signal, replicate 1 = 3.19e7; calcium entry signal, replicate 2 = 3.09e7; resting calcium signal, replicate 1 = 1.72e7; resting calcium signal, replicate 2 = 1.62e7; inactive.
For Lsp2 [DRSC09841] the deposit lists calcium entry signal, replicate 1 = 2.77e7; calcium entry signal, replicate 2 = 4.68e7; resting calcium signal, replicate 1 = 1.52e7; resting calcium signal, replicate 2 = 1.87e7; inactive.
For Lsp2 [DRSC11216], the values are calcium entry signal, replicate 1 = 2.76e7; calcium entry signal, replicate 2 = 4.24e7; resting calcium signal, replicate 1 = 1.49e7; resting calcium signal, replicate 2 = 1.91e7; inactive.
After knock-down of CG5823 [DRSC15881], the screen gave calcium entry signal, replicate 1 = 3.29e7; calcium entry signal, replicate 2 = 3.54e7; resting calcium signal, replicate 1 = 1.63e7; resting calcium signal, replicate 2 = 1.61e7; inactive.
With knock-down of CG13589 [DRSC04225], the record shows calcium entry signal, replicate 1 = 4.06e7; calcium entry signal, replicate 2 = 5.38e7; resting calcium signal, replicate 1 = 2.08e7; resting calcium signal, replicate 2 = 2.11e7; inactive.
CG14212 [DRSC19568] scored calcium entry signal, replicate 1 = 3.32e7; calcium entry signal, replicate 2 = 3.86e7; resting calcium signal, replicate 1 = 1.90e7; resting calcium signal, replicate 2 = 1.78e7; inactive.
For lncRNA:CR31386 [DRSC22769], the values are calcium entry signal, replicate 1 = 5.29e7; calcium entry signal, replicate 2 = 3.38e7; resting calcium signal, replicate 1 = 2.71e7; resting calcium signal, replicate 2 = 1.69e7; inactive.
Against lncRNA:CR31386 [DRSC23186], the entry reads calcium entry signal, replicate 1 = 4.53e7; calcium entry signal, replicate 2 = 4.15e7; resting calcium signal, replicate 1 = 2.40e7; resting calcium signal, replicate 2 = 1.76e7; inactive.
CG11594 [DRSC08207] scored calcium entry signal, replicate 1 = 4.98e7; calcium entry signal, replicate 2 = 3.75e7; resting calcium signal, replicate 1 = 3.06e7; resting calcium signal, replicate 2 = 1.59e7; inactive.
Depletion of CG6785 [DRSC02993] resulted in: calcium entry signal, replicate 1 = 4.97e7; resting calcium signal, replicate 1 = 2.48e7; inactive.
Knock-down of mlt (retired record) [DRSC06120] resulted in: calcium entry signal, replicate 1 = 4.59e7; calcium entry signal, replicate 2 = 4.32e7; resting calcium signal, replicate 1 = 1.87e7; resting calcium signal, replicate 2 = 2.00e7; inactive.

Laid out differently: 3 of the entries above.
{"Gene":"CG14212","dsRNA":"DRSC19568","calcium entry signal, replicate 1":3.32e7,"calcium entry signal, replicate 2":3.86e7,"resting calcium signal, replicate 1":1.90e7,"resting calcium signal, replicate 2":1.78e7,"Outcome":"inactive"}
{"Gene":"lncRNA:CR31386","dsRNA":"DRSC22769","calcium entry signal, replicate 1":5.29e7,"calcium entry signal, replicate 2":3.38e7,"resting calcium signal, replicate 1":2.71e7,"resting calcium signal, replicate 2":1.69e7,"Outcome":"inactive"}
{"Gene":"lncRNA:CR31386","dsRNA":"DRSC23186","calcium entry signal, replicate 1":4.53e7,"calcium entry signal, replicate 2":4.15e7,"resting calcium signal, replicate 1":2.40e7,"resting calcium signal, replicate 2":1.76e7,"Outcome":"inactive"}
